We go through 38 targets from the supplement of paper PMC10849652.

The chains behind the UniProt entries cited, without tags or fusion partners. Where a name states a change or a piece, a line headed by the entry shows the natural chain unless it says otherwise.
UniProt P49585: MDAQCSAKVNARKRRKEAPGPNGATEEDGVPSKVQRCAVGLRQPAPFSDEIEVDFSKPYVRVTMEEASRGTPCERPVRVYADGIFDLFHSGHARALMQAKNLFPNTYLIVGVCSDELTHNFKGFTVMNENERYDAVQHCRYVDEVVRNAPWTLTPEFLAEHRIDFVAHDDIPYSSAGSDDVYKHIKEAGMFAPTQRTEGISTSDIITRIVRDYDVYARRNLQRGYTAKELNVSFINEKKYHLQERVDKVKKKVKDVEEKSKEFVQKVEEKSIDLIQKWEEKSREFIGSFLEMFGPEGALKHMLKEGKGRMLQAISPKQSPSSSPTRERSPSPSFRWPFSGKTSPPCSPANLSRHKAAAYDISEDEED
UniProt H7BZJ3: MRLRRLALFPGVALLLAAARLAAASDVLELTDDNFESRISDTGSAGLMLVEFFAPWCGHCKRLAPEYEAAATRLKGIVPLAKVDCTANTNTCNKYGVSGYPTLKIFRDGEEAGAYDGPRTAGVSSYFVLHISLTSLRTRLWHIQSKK
UniProt P51003: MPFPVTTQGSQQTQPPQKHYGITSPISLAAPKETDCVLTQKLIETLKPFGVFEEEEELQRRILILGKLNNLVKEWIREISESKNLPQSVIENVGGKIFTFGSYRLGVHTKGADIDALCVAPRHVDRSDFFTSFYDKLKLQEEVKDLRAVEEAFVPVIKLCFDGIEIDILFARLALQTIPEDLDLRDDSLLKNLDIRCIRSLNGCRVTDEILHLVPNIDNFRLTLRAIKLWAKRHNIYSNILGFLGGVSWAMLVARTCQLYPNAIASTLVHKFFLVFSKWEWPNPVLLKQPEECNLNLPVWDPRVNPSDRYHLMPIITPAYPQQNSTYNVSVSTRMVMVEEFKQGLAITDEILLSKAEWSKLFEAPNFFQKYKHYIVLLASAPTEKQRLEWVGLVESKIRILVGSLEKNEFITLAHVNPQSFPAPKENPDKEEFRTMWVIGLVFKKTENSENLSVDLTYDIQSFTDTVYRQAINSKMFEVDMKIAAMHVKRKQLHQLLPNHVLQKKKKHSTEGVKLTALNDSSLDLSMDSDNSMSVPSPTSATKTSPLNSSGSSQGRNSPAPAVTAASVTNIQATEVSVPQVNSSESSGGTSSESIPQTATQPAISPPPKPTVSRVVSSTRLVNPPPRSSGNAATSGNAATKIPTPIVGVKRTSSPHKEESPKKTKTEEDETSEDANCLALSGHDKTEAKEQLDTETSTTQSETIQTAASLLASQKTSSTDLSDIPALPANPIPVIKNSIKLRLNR
UniProt Q15121, whole entry, looked up: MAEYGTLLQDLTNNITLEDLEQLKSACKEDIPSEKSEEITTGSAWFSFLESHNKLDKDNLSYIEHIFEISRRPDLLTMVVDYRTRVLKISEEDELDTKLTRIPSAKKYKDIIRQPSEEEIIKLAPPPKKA
UniProt Q8NCN5: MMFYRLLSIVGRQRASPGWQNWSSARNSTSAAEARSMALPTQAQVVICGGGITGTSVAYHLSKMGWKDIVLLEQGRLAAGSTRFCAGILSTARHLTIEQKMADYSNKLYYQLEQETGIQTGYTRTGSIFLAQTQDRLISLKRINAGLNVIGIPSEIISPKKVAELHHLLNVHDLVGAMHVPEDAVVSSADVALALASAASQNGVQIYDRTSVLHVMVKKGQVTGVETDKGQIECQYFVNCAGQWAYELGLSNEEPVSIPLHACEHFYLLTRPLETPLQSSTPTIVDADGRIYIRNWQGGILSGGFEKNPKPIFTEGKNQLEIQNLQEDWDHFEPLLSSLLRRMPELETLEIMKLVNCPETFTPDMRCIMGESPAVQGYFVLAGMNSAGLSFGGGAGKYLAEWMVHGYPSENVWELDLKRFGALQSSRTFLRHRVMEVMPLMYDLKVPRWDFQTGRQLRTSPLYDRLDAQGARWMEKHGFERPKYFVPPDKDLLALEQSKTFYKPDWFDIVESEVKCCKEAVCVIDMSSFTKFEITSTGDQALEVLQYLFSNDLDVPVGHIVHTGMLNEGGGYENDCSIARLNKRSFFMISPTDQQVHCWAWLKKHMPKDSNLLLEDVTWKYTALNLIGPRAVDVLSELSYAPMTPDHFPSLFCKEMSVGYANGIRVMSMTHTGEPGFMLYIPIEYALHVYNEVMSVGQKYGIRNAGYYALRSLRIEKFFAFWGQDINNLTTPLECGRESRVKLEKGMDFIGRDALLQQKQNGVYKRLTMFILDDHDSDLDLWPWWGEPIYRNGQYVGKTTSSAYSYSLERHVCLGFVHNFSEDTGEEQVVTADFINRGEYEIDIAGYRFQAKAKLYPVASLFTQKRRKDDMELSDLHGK
UniProt Q13310, whole entry, looked up: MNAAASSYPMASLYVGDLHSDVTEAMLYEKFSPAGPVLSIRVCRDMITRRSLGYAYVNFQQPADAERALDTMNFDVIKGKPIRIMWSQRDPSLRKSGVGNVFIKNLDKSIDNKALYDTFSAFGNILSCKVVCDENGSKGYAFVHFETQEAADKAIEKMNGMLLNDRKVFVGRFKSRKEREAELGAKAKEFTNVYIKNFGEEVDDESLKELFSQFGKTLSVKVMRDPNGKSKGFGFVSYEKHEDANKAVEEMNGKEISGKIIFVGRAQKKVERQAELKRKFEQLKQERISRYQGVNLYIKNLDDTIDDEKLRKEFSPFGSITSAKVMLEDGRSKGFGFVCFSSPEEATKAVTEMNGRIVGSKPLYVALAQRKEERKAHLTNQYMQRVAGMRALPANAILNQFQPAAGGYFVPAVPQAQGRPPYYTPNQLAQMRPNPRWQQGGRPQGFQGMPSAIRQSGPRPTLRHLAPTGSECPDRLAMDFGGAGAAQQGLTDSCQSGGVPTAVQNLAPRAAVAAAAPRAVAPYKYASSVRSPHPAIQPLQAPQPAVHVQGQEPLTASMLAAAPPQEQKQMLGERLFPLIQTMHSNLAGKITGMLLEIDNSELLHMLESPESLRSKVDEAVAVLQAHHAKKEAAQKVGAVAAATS
UniProt Q15118, whole entry, looked up: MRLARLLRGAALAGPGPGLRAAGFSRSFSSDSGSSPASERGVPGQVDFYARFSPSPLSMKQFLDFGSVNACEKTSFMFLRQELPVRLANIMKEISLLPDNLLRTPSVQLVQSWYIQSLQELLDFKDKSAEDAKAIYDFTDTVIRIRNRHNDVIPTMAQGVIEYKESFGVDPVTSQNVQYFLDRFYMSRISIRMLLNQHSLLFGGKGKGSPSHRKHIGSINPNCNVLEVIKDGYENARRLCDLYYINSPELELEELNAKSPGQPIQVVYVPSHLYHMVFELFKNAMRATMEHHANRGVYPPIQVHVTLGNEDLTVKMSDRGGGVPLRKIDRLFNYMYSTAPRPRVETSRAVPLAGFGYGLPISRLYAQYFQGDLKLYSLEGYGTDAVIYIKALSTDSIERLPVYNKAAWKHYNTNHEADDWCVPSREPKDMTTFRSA
UniProt O00541, whole entry, looked up: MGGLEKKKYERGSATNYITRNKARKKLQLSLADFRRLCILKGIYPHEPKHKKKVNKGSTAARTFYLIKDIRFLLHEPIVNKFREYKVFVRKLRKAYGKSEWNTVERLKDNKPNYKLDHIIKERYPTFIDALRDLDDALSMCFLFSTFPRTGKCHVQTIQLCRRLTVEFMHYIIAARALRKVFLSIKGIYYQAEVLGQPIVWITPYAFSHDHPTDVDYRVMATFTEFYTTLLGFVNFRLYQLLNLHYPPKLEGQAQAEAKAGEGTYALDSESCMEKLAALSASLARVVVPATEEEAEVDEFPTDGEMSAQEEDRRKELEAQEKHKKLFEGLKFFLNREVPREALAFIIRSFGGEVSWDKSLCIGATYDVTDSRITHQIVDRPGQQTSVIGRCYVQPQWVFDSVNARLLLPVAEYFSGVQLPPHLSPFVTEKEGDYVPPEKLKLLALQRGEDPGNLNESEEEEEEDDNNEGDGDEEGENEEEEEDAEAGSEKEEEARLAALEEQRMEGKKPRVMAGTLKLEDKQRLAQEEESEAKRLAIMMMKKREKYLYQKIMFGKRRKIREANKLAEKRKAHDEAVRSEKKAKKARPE
UniProt O96011, whole entry, looked up, stated change not applied: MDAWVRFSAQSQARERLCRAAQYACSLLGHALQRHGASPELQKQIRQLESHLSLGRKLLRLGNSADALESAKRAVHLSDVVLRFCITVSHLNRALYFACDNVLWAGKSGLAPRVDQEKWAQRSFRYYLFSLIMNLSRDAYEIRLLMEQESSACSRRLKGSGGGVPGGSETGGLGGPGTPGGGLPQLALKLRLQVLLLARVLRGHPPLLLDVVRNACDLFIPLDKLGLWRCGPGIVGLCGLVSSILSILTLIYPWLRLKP
UniProt Q8NBM8: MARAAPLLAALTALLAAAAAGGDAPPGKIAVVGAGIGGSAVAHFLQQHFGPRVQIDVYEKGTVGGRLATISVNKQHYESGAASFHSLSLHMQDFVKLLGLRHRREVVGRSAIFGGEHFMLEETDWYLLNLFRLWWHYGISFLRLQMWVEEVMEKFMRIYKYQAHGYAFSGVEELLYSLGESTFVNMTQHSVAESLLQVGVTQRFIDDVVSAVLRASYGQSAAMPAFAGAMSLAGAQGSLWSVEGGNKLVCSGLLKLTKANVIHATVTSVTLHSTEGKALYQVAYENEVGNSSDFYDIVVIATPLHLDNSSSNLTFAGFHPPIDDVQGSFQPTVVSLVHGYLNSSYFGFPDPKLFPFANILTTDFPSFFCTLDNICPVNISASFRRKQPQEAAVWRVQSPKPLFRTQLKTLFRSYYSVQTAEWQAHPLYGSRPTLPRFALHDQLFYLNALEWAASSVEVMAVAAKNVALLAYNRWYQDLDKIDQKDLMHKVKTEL
UniProt P09874, whole entry, looked up: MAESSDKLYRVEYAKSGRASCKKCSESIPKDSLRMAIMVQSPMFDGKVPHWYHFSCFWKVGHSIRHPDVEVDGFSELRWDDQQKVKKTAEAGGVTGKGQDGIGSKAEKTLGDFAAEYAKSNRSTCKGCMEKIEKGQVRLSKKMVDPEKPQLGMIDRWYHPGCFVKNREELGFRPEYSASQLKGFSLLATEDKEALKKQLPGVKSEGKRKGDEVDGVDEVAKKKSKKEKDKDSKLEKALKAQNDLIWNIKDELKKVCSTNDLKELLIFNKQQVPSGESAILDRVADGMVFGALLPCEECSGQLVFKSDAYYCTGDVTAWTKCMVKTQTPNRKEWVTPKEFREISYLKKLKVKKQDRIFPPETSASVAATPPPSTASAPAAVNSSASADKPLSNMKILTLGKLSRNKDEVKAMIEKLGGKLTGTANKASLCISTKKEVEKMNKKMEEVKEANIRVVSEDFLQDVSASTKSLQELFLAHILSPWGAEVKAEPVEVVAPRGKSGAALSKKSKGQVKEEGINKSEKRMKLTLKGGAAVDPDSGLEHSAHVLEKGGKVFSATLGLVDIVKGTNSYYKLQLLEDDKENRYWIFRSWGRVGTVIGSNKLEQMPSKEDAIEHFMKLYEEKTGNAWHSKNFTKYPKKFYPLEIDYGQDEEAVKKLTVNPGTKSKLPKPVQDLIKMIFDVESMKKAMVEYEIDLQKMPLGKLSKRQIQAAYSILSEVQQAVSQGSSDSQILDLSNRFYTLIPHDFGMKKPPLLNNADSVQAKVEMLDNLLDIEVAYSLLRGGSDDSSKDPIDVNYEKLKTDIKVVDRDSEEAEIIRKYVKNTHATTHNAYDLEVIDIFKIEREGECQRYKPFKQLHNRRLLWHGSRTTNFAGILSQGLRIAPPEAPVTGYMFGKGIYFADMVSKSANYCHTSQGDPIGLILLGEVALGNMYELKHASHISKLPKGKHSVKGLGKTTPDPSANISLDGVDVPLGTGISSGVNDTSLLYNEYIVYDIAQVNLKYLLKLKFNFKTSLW
UniProt P30101, whole entry, looked up: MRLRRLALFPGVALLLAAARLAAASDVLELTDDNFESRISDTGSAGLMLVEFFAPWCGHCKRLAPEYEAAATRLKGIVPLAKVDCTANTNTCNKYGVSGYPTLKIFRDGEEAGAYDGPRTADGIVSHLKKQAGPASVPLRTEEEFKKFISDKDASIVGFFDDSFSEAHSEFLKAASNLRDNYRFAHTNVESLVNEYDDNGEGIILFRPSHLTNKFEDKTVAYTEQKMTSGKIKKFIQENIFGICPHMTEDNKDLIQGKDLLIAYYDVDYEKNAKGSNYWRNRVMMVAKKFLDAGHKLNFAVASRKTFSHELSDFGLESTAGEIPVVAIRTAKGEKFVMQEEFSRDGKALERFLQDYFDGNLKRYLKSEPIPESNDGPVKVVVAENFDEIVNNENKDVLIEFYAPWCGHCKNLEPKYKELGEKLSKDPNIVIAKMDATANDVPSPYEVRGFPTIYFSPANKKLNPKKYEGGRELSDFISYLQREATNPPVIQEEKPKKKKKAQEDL
UniProt Q15365, whole entry, looked up: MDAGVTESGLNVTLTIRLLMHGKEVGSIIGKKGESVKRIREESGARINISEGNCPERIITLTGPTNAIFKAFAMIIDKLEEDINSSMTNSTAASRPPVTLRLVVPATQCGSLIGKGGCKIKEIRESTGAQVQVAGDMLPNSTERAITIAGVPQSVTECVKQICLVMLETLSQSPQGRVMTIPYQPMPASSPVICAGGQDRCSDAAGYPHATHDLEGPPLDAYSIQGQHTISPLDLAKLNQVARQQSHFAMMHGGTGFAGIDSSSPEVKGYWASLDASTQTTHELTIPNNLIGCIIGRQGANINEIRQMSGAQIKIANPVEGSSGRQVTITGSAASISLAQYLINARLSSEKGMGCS

Some of the results follow.

Compound in one experiment: C1=CC=C(C=C1)[C@H](COC2=CC3=C(C=C2)NC(=O)N3)NC(=O)C4=CC=CN(C4=O)CC5=CC(=C(C=C5)F)F
Description: log2 fold change, soluble protein after heating vs DMSO (PISA); higher = thermal stabilisation; K562 cells, 10 uM, 30 min; active = over 0.2 and 3.5 SD of the protein, either way, in both replicates (recomputed). In short, it runs like this:
(§1)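 Soluble protein was quantified by TMTpro 16plex LC-MS/MS after channel sums were equalised. It was obtained as the supernatant after 21,000xg for 90 min from pooled aliquots of K562 cells (2×10^6 cells/mL, 10 μM compound, 30 min) heated for 3 min across 48°C-58°C and extracted in PBS with 0.5% NP-40 at 4°C. Thermal stability values are relative to control samples and come from duplicates. They are given as log2 fold changes.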
Take PDIA6 isoform 2 (UniProt Q15084): the log2 fold change is inactive: -0.017.

For the target PALMD (UniProt Q9NP74), the log2 fold change was inactive: -0.016.

In the case of PCYT1A (UniProt P49585), the log2 fold change was inactive: -0.035.

On to PAK3 isoform 3 (UniProt O75914), for which the log2 fold change is inactive: 0.015.

On to PDCD6 (UniProt O75340), for which the log2 fold change was inactive: -0.024.

As for PDIA3 (UniProt H7BZJ3), the log2 fold change is inactive: 0.055.

With PCNP (UniProt Q8WW12), the log2 fold change was inactive: 0.024.

For PDLIM4 (UniProt P50479), the log2 fold change was inactive: -0.004.

For PEX14 (UniProt O75381), the log2 fold change was inactive: -0.006.

Take PBXIP1 (UniProt Q96AQ6): the log2 fold change was inactive: 0.018.

On to PDCD6IP (UniProt Q8WUM4), for which the log2 fold change was inactive: -0.131.

On to PAPSS1 (UniProt O43252), for which the log2 fold change is inactive: -0.012.

In the case of PAPOLA (UniProt P51003), the log2 fold change was inactive: -0.027.

Take PARVB (UniProt Q9HBI1): the log2 fold change is inactive: -0.034.

Regarding PEA15 isoform 2 (UniProt Q15121), the log2 fold change was inactive: -0.014.

On to PDPR (UniProt Q8NCN5), for which the log2 fold change is inactive: -0.023.

As for PANK2 (UniProt Q9BZ23), the log2 fold change was inactive: -0.016.

PDLIM1 (UniProt O00151): the log2 fold change was inactive: 0.01.

As to PDS5A (UniProt Q29RF7), the log2 fold change is inactive: -0.34.

In the case of PABPC4 isoform 3 (UniProt Q13310), the log2 fold change was inactive: 0.074.

Consider PEF1 (UniProt Q9UBV8), for which the log2 fold change is inactive: 0.01.

For the target PAXIP1 (UniProt Q6ZW49), the log2 fold change was inactive: -0.139.

In the case of PCCB isoform 2 (UniProt P05166), the log2 fold change was inactive: -0.06.

As to PDK1 (UniProt Q15118), the log2 fold change was inactive: -0.054.

PES1 (UniProt O00541): the log2 fold change was inactive: 0.017.

For the target PCNT (UniProt O95613), the log2 fold change was inactive: 0.037.

PEX11B (UniProt O96011): the log2 fold change is inactive: -0.027.

With PCYOX1L (UniProt Q8NBM8), the log2 fold change was inactive: -0.02.

Consider PCTP (UniProt Q9UKL6), for which the log2 fold change was inactive: -0.033.

Take PARP1 (UniProt P09874): the log2 fold change is inactive: -0.098.

Consider PARD6B (UniProt Q9BYG5), for which the log2 fold change was inactive: -0.023.

On to PAK2 (UniProt Q13177), for which the log2 fold change is inactive: 0.016.

PDIA3 (UniProt P30101): the log2 fold change was inactive: -0.008.

Turning to PELP1 (UniProt Q8IZL8), the log2 fold change is inactive: 0.

Take PDCD4 (UniProt Q53EL6): the log2 fold change is inactive: -0.055.

Turning to PAFAH2 (UniProt Q99487), the log2 fold change is inactive: -0.191.

With PCBP1 (UniProt Q15365), the log2 fold change is inactive: -0.045.

On to PCMT1 isoform 2 (UniProt P22061), for which the log2 fold change is inactive: -0.022.

Compound in the next experiment: CC1=C(SC2=C1C(=N[C@H](C3=NN=C(N32)C)CC(=O)N)C4=CC=C(C=C4)Cl)C
The description is as above. In short, it runs like this:
as §1
For the target PDIA6 isoform 2 (UniProt Q15084), the log2 fold change is inactive: -0.058.

Regarding PALMD (UniProt Q9NP74), the log2 fold change is inactive: 0.022.

Take PCYT1A (UniProt P49585): the log2 fold change was inactive: 0.005.

PAK3 isoform 3 (UniProt O75914): the log2 fold change was inactive: 0.028.

As for PDCD6 (UniProt O75340), the log2 fold change is inactive: 0.057.

In the case of PDIA3 (UniProt H7BZJ3), the log2 fold change was inactive: -0.064.

For the target PCNP (UniProt Q8WW12), the log2 fold change was inactive: 0.011.

PDLIM4 (UniProt P50479): the log2 fold change was inactive: 0.078.

PEX14 (UniProt O75381): the log2 fold change is inactive: -0.015.

For PBXIP1 (UniProt Q96AQ6), the log2 fold change is inactive: 0.039.

Turning to PDCD6IP (UniProt Q8WUM4), the log2 fold change is inactive: 0.05.

With PAPSS1 (UniProt O43252), the log2 fold change was inactive: 0.043.

As to PAPOLA (UniProt P51003), the log2 fold change was inactive: 0.051.

Consider PARVB (UniProt Q9HBI1), for which the log2 fold change was inactive: 0.02.

With PEA15 isoform 2 (UniProt Q15121), the log2 fold change is inactive: 0.1.

PDPR (UniProt Q8NCN5): the log2 fold change was inactive: 0.057.

For the target PANK2 (UniProt Q9BZ23), the log2 fold change was inactive: 0.078.

As for PDLIM1 (UniProt O00151), the log2 fold change is inactive: 0.038.

With PDS5A (UniProt Q29RF7), the log2 fold change is inactive: 0.066.

On to PABPC4 isoform 3 (UniProt Q13310), for which the log2 fold change is inactive: -0.113.

For PEF1 (UniProt Q9UBV8), the log2 fold change is inactive: 0.185.

On to PAXIP1 (UniProt Q6ZW49), for which the log2 fold change was inactive: -0.146.

For the target PCCB isoform 2 (UniProt P05166), the log2 fold change was inactive: 0.049.

PDK1 (UniProt Q15118): the log2 fold change was inactive: 0.015.

For PES1 (UniProt O00541), the log2 fold change is inactive: -0.269.

As for PCNT (UniProt O95613), the log2 fold change was inactive: -0.067.

Take PEX11B (UniProt O96011): the log2 fold change was inactive: 0.056.

In the case of PCYOX1L (UniProt Q8NBM8), the log2 fold change was inactive: -0.009.

As to PCTP (UniProt Q9UKL6), the log2 fold change was inactive: -0.101.

For PARP1 (UniProt P09874), the log2 fold change is inactive: 0.027.

Take PARD6B (UniProt Q9BYG5): the log2 fold change was inactive: 0.035.

Turning to PAK2 (UniProt Q13177), the log2 fold change was inactive: 0.027.

On to PDIA3 (UniProt P30101), for which the log2 fold change was inactive: -0.064.

For PELP1 (UniProt Q8IZL8), the log2 fold change is inactive: 0.006.

As for PDCD4 (UniProt Q53EL6), the log2 fold change was inactive: 0.002.

On to PAFAH2 (UniProt Q99487), for which the log2 fold change is inactive: 0.016.

For PCBP1 (UniProt Q15365), the log2 fold change was inactive: 0.047.

On to PCMT1 isoform 2 (UniProt P22061), for which the log2 fold change was inactive: 0.067.
